# PubChem BioAssay AID1259327 – Drosophila RNAi Screening Center – 2017
# Aim: 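Knock-downs altering cellular ATP with no metal added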
# Cells: Drosophila S2R+ cells
# Reagents: long dsRNA against Drosophila genes
# Time to read-out: 5 days (water added on day 4, read one day later)
# Challenge: water added as vehicle, no metal, one day before read-out
# Measured: 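Total ATP measured by luciferase light, scaled to plate mean, duplicates averaged, then z-scored across plates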
# Direction: ATP z-score: higher = more total ATP than typical wells; ATP luminescence: higher = more total ATP
# Active means: 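a hit is any knock-down whose absolute ATP z-score is greater than 1.5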
# Calls: active = hit: ATP up or down; inactive = no clear ATP change
# Here is an unselected part of about 3,100 deposited reagents. In the full data, 378 (12%) were called active. 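Hits include both directions; z-score sign shows ATP rise or fall; raw luminescence values are not plate-normalised.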 A number with no mark means an inactive call. Reagents against one gene are numbered here. Names joined by + are all predicted targets of the reagent. Not stated in the record: the amount of reagent.
Gene,reagent no.,"ATP z-score, duplicate mean","ATP luminescence, replicate 1 (RLU)","ATP luminescence, replicate 2 (RLU)"
Nrg,1,1.39,8.26e5,6.64e5
Nrg,2,0.317,6.95e5,7.80e5
Nrg,3,-1.28,7.71e5,9.54e5
Stt3A,1,-0.291,6.94e5,6.58e5
Stt3A,2,0.242,9.20e5,7.90e5
fusl,1,-0.552,3.54e5,5.32e5
fusl,2,0.506,8.96e5,8.72e5
Vmat,1,-1.89 (active),6.55e5,5.74e5
CG32645,1,0.341,6.28e5,6.41e5
CG32645,2,1.74 (active),8.49e5,7.36e5
CG7091,1,-0.433,2.92e5,6.83e5
CG7091,2,-0.727,2.67e5,6.81e5
Or13a,1,-0.293,6.58e5,8.23e5
Or13a,2,-1.07,4.08e5,3.76e5
ppk14,1,1.35,8.35e5,9.04e5
ppk14,2,0.311,5.69e5,4.28e5
CG32988,1,-0.311,7.20e5,6.67e5
ort,1,-0.333,2.72e5,7.56e5
ort,2,-1.65 (active),3.44e5,3.62e5
amx,1,-0.476,7.88e5,7.95e5
amx,2,0.843,5.29e5,5.47e5
GlyT,1,-0.798,6.51e5,6.32e5
GlyT,2,-0.0651,8.27e5,8.58e5
ATP7,1,-1.72 (active),4.76e5,6.36e5
ATP7,2,-0.207,4.65e5,4.15e5
CG4462,1,0.193,7.36e5,7.15e5
CG4462,2,0.931,1.01e6,8.63e5
CG10345,1,-0.138,7.13e5,6.71e5
sing,1,-1.43,5.62e5,6.13e5
sing,2,-1.69 (active),3.49e5,3.52e5
Gr98b,1,3.04 (active),6.95e5,9.82e5
Gr98b,2,0.0591,5.14e5,6.73e5
CG14971,1,-1.78 (active),5.20e5,5.62e5
CG30379,1,1.18,8.60e5,8.81e5
CG30379,2,-0.781,4.08e5,4.41e5
CG44247 + veg (retired record),1,-0.125,6.97e5,5.19e5
vir,1,0.00715,7.61e5,6.94e5
vir,2,-0.609,8.38e5,9.96e5
CG12355,1,1.28,8.39e5,8.86e5
CG12355,2,-0.155,8.95e5,8.57e5
TM4SF,1,0.124,6.71e5,8.19e5
TM4SF,2,0.183,4.61e5,4.95e5
Syx5,1,-1.6 (active),3.29e5,4.07e5
eca,1,-1.74 (active),6.61e5,6.06e5
Tim23,1,-1.02,6.30e5,6.05e5
teq,1,0.358,9.23e5,9.61e5
teq,2,1.58 (active),8.98e5,9.30e5
CG12730,1,-0.736,7.41e5,6.18e5
CG12730,2,0.214,5.82e5,3.58e5
Ktch,1,0.965,6.54e5,7.69e5
Ktch,2,-0.724,7.77e5,7.43e5
CG4576,1,-1.01,2.70e5,6.10e5
CG4576,2,0.00672,8.86e5,8.16e5
Catsup,1,0.22,7.47e5,7.52e5
Catsup,2,-0.446,7.98e5,7.91e5
Ir84a,1,-0.383,8.67e5,8.25e5
Ir84a,2,3.18 (active),1.16e6,9.63e5
Poxm + Ctr1B,1,0.269,3.40e5,7.18e5
Poxm + Ctr1B,2,-0.204,4.33e5,4.71e5
CG1275,1,-0.415,6.76e5,6.97e5
CG8028,1,0.134,7.30e5,7.86e5
Octbeta2R,1,-0.0584,7.24e5,7.49e5
Octbeta2R,2,0.113,2.83e5,8.30e5
Octbeta2R,3,-0.423,9.09e5,6.47e5
Ae2,1,1.01,8.03e5,8.62e5
Ae2,2,-0.0625,7.13e5,7.36e5
CG16825,1,-0.474,6.38e5,7.12e5
CG16825,2,-0.0789,4.44e5,4.76e5

Only “ATP z-score, duplicate mean” (11 entries from above):
Nrg #1	1.39
Nrg #2	0.317
Nrg #3	-1.28
Stt3A #1	-0.291
Stt3A #2	0.242
fusl #1	-0.552
fusl #2	0.506
Vmat	-1.89 (active)
CG32645 #1	0.341
CG32645 #2	1.74 (active)
CG7091 #1	-0.433
